Assay results from patent EP4582438A1, “ANTIBACTERIAL PEPTIDE CONSISTING OF TRANSMEMBRANE PEPTIDE DOMAIN AND BASIC OR POLAR AMINO ACIDS AT OPPOSITE ENDS THEREOF AND VARIANTS THEREOF” (Korea University Research and Business Foundation, priority 2022, dated 2025).
Part of at least one peptide drawing is inferred or uncertain, most often the ends. Ends that are not written are not given here.

Assays:
[1] = tested on: Pseudomonas aeruginosa (ATCC 27853); format: cell-based; details: for MBC value Pseudomonas aeruginosa: minimum peptide concentration giving no single colony, 1 hour reaction at 37°C, 5 × 10^5 CFU/ml, 0 to 200 µg/ml peptide; for antibacterial activity (in words): statement in words, MBC measurement method, Pseudomonas aeruginosa
[2] = tested on: Staphylococcus aureus (NCCP 15872); format: cell-based; details: for MBC value Staphylococcus aureus: minimum peptide concentration giving no single colony, 1 hour reaction at 37°C, 5 × 10^5 CFU/ml, 0 to 200 µg/ml peptide; for antibacterial activity (in words): statement in words, MBC measurement method, Staphylococcus aureus

## ILYGSLGSVVAGFGHFLF [COX20-0]
[1]
  MBC value Pseudomonas aeruginosa: 200 < µg/ml
  antibacterial activity (in words): low antibacterial activity
[2]
  MBC value Staphylococcus aureus: 200 < µg/ml
  antibacterial activity (in words): low antibacterial activity

## LANVIRYFPTQALNFAFKDKYKQIF [SLC25A6-0]
[1]
  MBC value Pseudomonas aeruginosa: 200 < X µg/ml
[2]
  MBC value Staphylococcus aureus: 200 < X µg/ml

## KEAPFVPVGIAGFAAIVAYGLYK [HIG1A-0-K1]
[1]
  MBC value Pseudomonas aeruginosa: 200 < µg/ml
[2]
  MBC value Staphylococcus aureus: 200 < µg/ml

## EAPFVPVGIAGFAAIVAYGLY [HIG1A-0]
[1]
  MBC value Pseudomonas aeruginosa: 200 < µg/ml
  antibacterial activity (in words): low antibacterial activity
[2]
  MBC value Staphylococcus aureus: 200 < µg/ml
  antibacterial activity (in words): low antibacterial activity

## RHSILYGSLGSVVAGFGHFLFTSR [COX20-3]
[2]
  MBC value Staphylococcus aureus: 200 < µg/ml

## KAKGLHRQLLYITAFFFAGYYLVKLK [NDn-1-m1]
[1]
  antibacterial activity (in words): excellent antibacterial activity
[2]
  antibacterial activity (in words): excellent antibacterial activity

## KAKIAAQGFTVAAILLGLAVTAMKKLK [HI2-m1]
[1]
  antibacterial activity (in words): excellent antibacterial activity
[2]
  antibacterial activity (in words): excellent antibacterial activity
